In the supplement of paper PMC8728848:
Some of the results follow.

How the values were obtained:
Experiment in all cases: glycan array binding signal (z-score within array); higher = stronger binding
Details in all cases: glycan notation: IUPAC condensed, linker removed
[1] = target: Neu5Ac(a2-3)Gal(b1-3)GlcNAc(b1-6)GalNAc
Summary of the method: (§1)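 Glycan array data came from 3228 arrays in the Consortium for Functional Glycomics database, and only arrays with an available protein sequence were kept. Glycan names were put into IUPAC-condensed notation, and columns mapping to the same glycan were averaged. The binding signal is a within-array Z-score, averaged across arrays of one protein sequence run at different concentrations or buffers and across linkers. A negative Z-score can be read as non-binding.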

[2] = target: Neu5Ac(a2-3)Gal(b1-3)GlcNAc6S
Summary of the method: as §1

[3] = target: Neu5Ac(a2-3)Gal(b1-3)[Fuc(a1-4)]GlcNAc
Summary of the method: as §1

[4] = target: Neu5Ac(a2-3)Gal(b1-3)[Fuc(a1-4)]GlcNAc(b1-3)Gal(b1-3)[Fuc(a1-4)]GlcNAc
Summary of the method: as §1

[5] = target: Neu5Ac(a2-3)Gal(b1-3)[Fuc(a1-4)]GlcNAc(b1-3)Gal(b1-4)[Fuc(a1-3)]GlcNAc
Summary of the method: as §1

[6] = target: Neu5Ac(a2-3)Gal(b1-3)[GlcNAc(b1-6)]GalNAc
Summary of the method: as §1

[7] = target: Neu5Ac(a2-3)Gal(b1-3)[Neu5Ac(a2-6)]GalNAc
Summary of the method: as §1

[8] = target: Neu5Ac(a2-3)Gal(b1-3)[Neu5Ac(a2-6)]GlcNAc(b1-3)[Fuc(a1-3)[Gal(b1-4)]GlcNAc(b1-6)]Gal(b1-4)Glc
Summary of the method: as §1

[9] = target: Neu5Ac(a2-3)Gal(b1-3)]Neu5Ac(a2-3)Gal(b1-4)]GlcNAc
Summary of the method: as §1

Neu5Ac(a2-3)Gal(b1-4)Glc = target: Neu5Ac(a2-3)Gal(b1-4)Glc
Summary of the method: as §1

[10] = target: Neu5Ac(a2-3)Gal(b1-4)GlcNAc
Summary of the method: as §1

[11] = target: Neu5Ac(a2-3)Gal(b1-4)GlcNAc(b1-2)Man
Summary of the method: as §1

[12] = target: Neu5Ac(a2-3)Gal(b1-4)GlcNAc(b1-2)Man(a1-3)[GlcNAc(b1-4)][Neu5Ac(a2-3)Gal(b1-4)GlcNAc(b1-2)Man(a1-6)]Man(b1-4)GlcNAc(b1-4)GlcNAc
Summary of the method: as §1

[13] = target: Neu5Ac(a2-3)Gal(b1-4)GlcNAc(b1-2)Man(a1-3)[Neu5Ac(a2-3)Gal(b1-4)GlcNAc(b1-2)Man(a1-6)]Man(b1-4)GlcNAc(b1-4)GlcNAc
Summary of the method: as §1

[14] = target: Neu5Ac(a2-3)Gal(b1-4)GlcNAc(b1-2)Man(a1-3)[Neu5Ac(a2-3)Gal(b1-4)GlcNAc(b1-2)Man(a1-6)]Man(b1-4)GlcNAc(b1-4)[Fuc(a1-6)]GlcNAc
Summary of the method: as §1

[15] = target: Neu5Ac(a2-3)Gal(b1-4)GlcNAc(b1-2)Man(a1-3)[Neu5Ac(a2-6)Gal(b1-4)GlcNAc(b1-2)Man(a1-6)]Man(b1-4)GlcNAc(b1-4)GlcNAc
Summary of the method: as §1

[16] = target: Neu5Ac(a2-3)Gal(b1-4)GlcNAc(b1-2)[Neu5Ac(a2-3)Gal(b1-4)GlcNAc(b1-4)]Man(a1-3)[GlcNAc(b1-4)][Neu5Ac(a2-3)Gal(b1-4)GlcNAc(b1-2)[Neu5Ac(a2-3)Gal(b1-4)GlcNAc(b1-6)]Man(a1-6)]Man(b1-4)GlcNAc(b1-4)GlcNAc
Summary of the method: as §1

[17] = target: Neu5Ac(a2-3)Gal(b1-4)GlcNAc(b1-2)[Neu5Ac(a2-3)Gal(b1-4)GlcNAc(b1-4)]Man(a1-3)[GlcNAc(b1-4)][Neu5Ac(a2-3)Gal(b1-4)GlcNAc(b1-4)Man(a1-6)]Man(b1-4)GlcNAc(b1-4)GlcNAc
Summary of the method: as §1

[18] = target: Neu5Ac(a2-3)Gal(b1-4)GlcNAc(b1-2)[Neu5Ac(a2-3)Gal(b1-4)GlcNAc(b1-6)]Man(a1-6)[Neu5Ac(a2-3)Gal(b1-4)GlcNAc(b1-2)Man(a1-3)][GlcNAc(b1-4)]Man(b1-4)GlcNAc(b1-4)GlcNAc
Summary of the method: as §1

[19] = target: Neu5Ac(a2-3)Gal(b1-4)GlcNAc(b1-3)Gal
Summary of the method: as §1

[20] = target: Neu5Ac(a2-3)Gal(b1-4)GlcNAc(b1-3)Gal(b1-3)GlcNAc
Summary of the method: as §1

[21] = target: Neu5Ac(a2-3)Gal(b1-4)GlcNAc(b1-3)Gal(b1-4)GlcNAc
Summary of the method: as §1

[22] = target: Neu5Ac(a2-3)Gal(b1-4)GlcNAc(b1-3)Gal(b1-4)GlcNAc(b1-2)Man(a1-3)[Neu5Ac(a2-3)Gal(b1-4)GlcNAc(b1-3)Gal(b1-4)GlcNAc(b1-2)Man(a1-6)]Man(b1-4)GlcNAc(b1-4)GlcNAc
Summary of the method: as §1

[23] = target: Neu5Ac(a2-3)Gal(b1-4)GlcNAc(b1-3)Gal(b1-4)GlcNAc(b1-3)Gal(b1-4)GlcNAc
Summary of the method: as §1

[24] = target: Neu5Ac(a2-3)Gal(b1-4)GlcNAc(b1-3)Gal(b1-4)GlcNAc(b1-3)Gal(b1-4)GlcNAc(b1-2)Man(a1-3)[Neu5Ac(a2-3)Gal(b1-4)GlcNAc(b1-3)Gal(b1-4)GlcNAc(b1-3)Gal(b1-4)GlcNAc(b1-2)Man(a1-6)]GalNAc
Summary of the method: as §1

[25] = target: Neu5Ac(a2-3)Gal(b1-4)GlcNAc(b1-3)Gal(b1-4)GlcNAc(b1-3)GalNAc
Summary of the method: as §1

[26] = target: Neu5Ac(a2-3)Gal(b1-4)GlcNAc(b1-3)Gal(b1-4)GlcNAc(b1-3)[Neu5Ac(a2-3)Gal(b1-4)GlcNAc(b1-3)Gal(b1-4)GlcNAc(b1-6)]GalNAc
Summary of the method: as §1

[27] = target: Neu5Ac(a2-3)Gal(b1-4)GlcNAc(b1-3)Gal(b1-4)GlcNAc(b1-6)[Gal(b1-3)]GalNAc
Summary of the method: as §1

[28] = target: Neu5Ac(a2-3)Gal(b1-4)GlcNAc(b1-3)Gal(b1-4)[Fuc(a1-3)]GlcNAc
Summary of the method: as §1

[29] = target: Neu5Ac(a2-3)Gal(b1-4)GlcNAc(b1-3)GalNAc
Summary of the method: as §1

B1: Epa20 (Candida glabrata) (protein)
chain: MGSSHHHHHHSSGLVPRGSHMASSNIPNNYPLGCSNKYSGHLPGLKMELYSYNYVNPRHPDPQNPGKLDQLYDPNLLGTYECFDSSYKDINYPRVGYKSKTLIGRSDGVSGILNFNFVPPWGCMPQKGQLPPAYNFKSNITLSNFTMILFGYFKPKISGNHIFSLHGDDLIYLNFGAGNAFDCCRQESSADNFGNYQAFSLWGINWEKKTLTVYLDMNTYYPIRIFYNNRDYQAIFNFSFKTEFDSSPVIDFQDYFFFLRDIDGGCPGEV
[1]
  glycan array binding signal (z-score): 0.465
[2]
  glycan array binding signal (z-score): 0.746
[3]
  glycan array binding signal (z-score): 0.139
[4]
  glycan array binding signal (z-score): 1.1
[5]
  glycan array binding signal (z-score): 0.257
[6]
  glycan array binding signal (z-score): 0.084
[7]
  glycan array binding signal (z-score): 0.014
[8]
  glycan array binding signal (z-score): 2.49
[9]
  glycan array binding signal (z-score): 1.33
Neu5Ac(a2-3)Gal(b1-4)Glc
  glycan array binding signal (z-score): 0.869
[10]
  glycan array binding signal (z-score): -0.159
[11]
  glycan array binding signal (z-score): 1.65
[12]
  glycan array binding signal (z-score): -0.439
[13]
  glycan array binding signal (z-score): 0.036
[14]
  glycan array binding signal (z-score): -0.585
[15]
  glycan array binding signal (z-score): -0.493
[16]
  glycan array binding signal (z-score): -0.119
[17]
  glycan array binding signal (z-score): -0.303
[18]
  glycan array binding signal (z-score): -0.472
[19]
  glycan array binding signal (z-score): -0.523
[20]
  glycan array binding signal (z-score): -0.463
[21]
  glycan array binding signal (z-score): -0.826
[22]
  glycan array binding signal (z-score): 0.404
[23]
  glycan array binding signal (z-score): -0.116
[24]
  glycan array binding signal (z-score): 2.75
[25]
  glycan array binding signal (z-score): 0.735
[26]
  glycan array binding signal (z-score): 4.06
[27]
  glycan array binding signal (z-score): 0.05
[28]
  glycan array binding signal (z-score): -0.027
[29]
  glycan array binding signal (z-score): 0.349
